Residue numbers refer to the chain shown, from its start. The list shows a part of the results. For part of these data: At the low end of the ranking the order means little. For part of these data: The exact form of the protein is not confirmed.
Assays:
Conditions in all cases: yeast three-hybrid, YBZ-1, SC-Leu-His + 0.5 mM 3-AT, 4 days
[1] = biological target: T1, PUM1 PUF domain R1-QFR R2-VFQ R7-NPG S863Q + R864F + Q867R + N899V + Y900F + S1079N + N1080P + E1083G (UniProt Q14671)
T1 sequence: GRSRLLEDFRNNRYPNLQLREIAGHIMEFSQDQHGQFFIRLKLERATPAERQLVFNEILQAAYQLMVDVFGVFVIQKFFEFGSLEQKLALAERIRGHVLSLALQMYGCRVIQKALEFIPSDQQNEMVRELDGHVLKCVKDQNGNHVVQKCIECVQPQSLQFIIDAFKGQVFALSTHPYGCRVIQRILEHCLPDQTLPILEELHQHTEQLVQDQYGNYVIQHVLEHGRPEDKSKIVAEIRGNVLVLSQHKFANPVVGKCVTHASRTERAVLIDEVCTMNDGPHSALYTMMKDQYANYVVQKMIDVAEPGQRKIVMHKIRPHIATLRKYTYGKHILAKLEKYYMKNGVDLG

[2] = biological target: T2, PUM1 PUF domain R2-VFQ R3-THE R4-TFR N899V + Y900F + C935T + R936H + Q939E + N971T + H972F + Q975R (UniProt Q14671)
T2 sequence: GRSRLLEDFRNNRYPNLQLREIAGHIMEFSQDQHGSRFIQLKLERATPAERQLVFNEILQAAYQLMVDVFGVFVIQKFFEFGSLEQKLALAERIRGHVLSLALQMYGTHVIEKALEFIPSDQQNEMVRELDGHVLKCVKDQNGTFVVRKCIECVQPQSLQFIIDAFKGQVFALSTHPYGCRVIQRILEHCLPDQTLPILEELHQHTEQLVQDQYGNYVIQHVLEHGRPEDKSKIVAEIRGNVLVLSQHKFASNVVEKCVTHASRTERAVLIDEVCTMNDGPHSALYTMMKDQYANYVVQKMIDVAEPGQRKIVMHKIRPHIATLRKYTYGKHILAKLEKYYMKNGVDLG

[3] = biological target: T3, PUM1 PUF domain R3-THE R4-TFR C935T + R936H + Q939E + N971T + H972F + Q975R (UniProt Q14671)
T3 sequence: T2 sequence with V72N, F73Y

[4] = biological target: T4, PUM1 PUF domain R3-THE R4-TFR R7-NPG C935T + R936H + Q939E + N971T + H972F + Q975R + S1079N + N1080P + E1083G (UniProt Q14671)
T4 sequence: T2 sequence with V72N, F73Y, S252N, N253P, E256G

[5] = biological target: T5, PUM1 PUF domain R3-THE R4-TFR R7-NPG C935T + R936H + Q939E + N971T + H972F + Q975R + S1079N + N1080P + E1083G (Homo sapiens) (UniProt Q14671)
T5 sequence: T2 sequence with V72N, F73Y, S252N, N253P, E256G

[6] = biological target: T6, PUM1 PUF domain R6-SWD R7-NPG N1043S + Y1044W + Q1047D + S1079N + N1080P + E1083G (Homo sapiens) (UniProt Q14671)
T6 sequence: T1 sequence with Q36S, F37R, R40Q, V72N, F73Y, N216S, Y217W, Q220D

[7] = biological target: T7, PUM1 PUF domain R5-PHQ R6-SWD C1007P + R1008H + N1043S + Y1044W + Q1047D (UniProt Q14671)
T7 sequence: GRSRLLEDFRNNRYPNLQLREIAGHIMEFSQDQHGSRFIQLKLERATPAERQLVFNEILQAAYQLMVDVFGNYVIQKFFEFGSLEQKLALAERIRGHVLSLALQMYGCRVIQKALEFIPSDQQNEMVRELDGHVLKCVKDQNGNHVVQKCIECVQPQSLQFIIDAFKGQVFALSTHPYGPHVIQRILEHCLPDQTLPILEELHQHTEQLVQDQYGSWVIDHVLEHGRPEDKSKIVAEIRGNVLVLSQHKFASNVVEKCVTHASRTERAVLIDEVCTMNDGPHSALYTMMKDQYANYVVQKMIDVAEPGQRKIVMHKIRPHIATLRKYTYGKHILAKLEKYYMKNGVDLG

[8] = biological target: T8, PUM1 PUF domain R6-SWD R7-NPG N1043S + Y1044W + Q1047D + S1079N + N1080P + E1083G (UniProt Q14671)
T8 sequence: T7 sequence with P180C, H181R, S252N, N253P, E256G

Row | Sequence | binding signal (log2 enrichment (interaction score)) [1] | binding signal (log2 enrichment (interaction score)) [2] | binding signal (log2 enrichment (interaction score)) [3] | binding signal (log2 enrichment (interaction score)) [4] | binding signal (log2 enrichment (interaction score)) [5] | binding signal (log2 enrichment (interaction score)) [6] | binding signal (log2 enrichment (interaction score)) [7] | binding signal (log2 enrichment (interaction score)) [8]
1 | GGCUAGAACUAGUGGAUCCCCCGGCGCCCGGCGGCUCGAGCCCGGGUAAGUUAACGAAGUCUGCAUGCCGCCGGGCGCCAUGCCUGCAGGUCGACUCUAGAAAACAUG | -5.44 | -5.54 | -7.46 | -2.6 |  |  |  | 
2 | GGCUAGAACUAGUGGAUCCCCCGGCGCCCGGCGGCUCGAGCCCGGGUAAGUUUAAGAUGUCUGCAUGCCGCCGGGCGCCAUGCCUGCAGGUCGACUCUAGAAAACAUG | < -5.49 | -4.66 | < -6.22 |  | -1.4 | -1.34 |  | 
3 | GGCUAGAACUAGUGGAUCCCCCGGCGCCCGGCGGCUCGAGCCCGGGUAAGUGGAUAUCGUCUGCAUGCCGCCGGGCGCCAUGCCUGCAGGUCGACUCUAGAAAACAUG | < -6.45 | -5.75 | -7.08 | < -2.11 |  |  | < -7.63 | 
4 | GGCUAGAACUAGUGGAUCCCCCGGCGCCCGGCGGCUCGAGCCCGGGUAAGUUUAACUAGUCUGCAUGCCGCCGGGCGCCAUGCCUGCAGGUCGACUCUAGAAAACAUG | -5.93 | -5.06 | -7.54 |  | -1.62 | -1.42 | -8.99 | 
5 | GGCUAGAACUAGUGGAUCCCCCGGCGCCCGGCGGCUCGAGCCCGGGUAAGUGGCUAAAGUCUGCAUGCCGCCGGGCGCCAUGCCUGCAGGUCGACUCUAGAAAACAUG | -6.16 | -5.56 | -6.11 | -2.07 |  |  | -8.6 | 
6 | GGCUAGAACUAGUGGAUCCCCCGGCGCCCGGCGGCUCGAGCCCGGGUAAGUUAAAAUAGUCUGCAUGCCGCCGGGCGCCAUGCCUGCAGGUCGACUCUAGAAAACAUG | -5.22 | -5.81 | -7.43 |  | < -1.63 |  | -7.56 | -2.3
7 | GGCUAGAACUAGUGGAUCCCCCGGCGCCCGGCGGCUCGAGCCCGGGUAAGUUUACUUAGUCUGCAUGCCGCCGGGCGCCAUGCCUGCAGGUCGACUCUAGAAAACAUG | -5.63 | -4.18 | -7.35 |  | -1.32 | -1.6 | -8.02 | 
8 | GGCUAGAACUAGUGGAUCCCCCGGCGCCCGGCGGCUCGAGCCCGGGUAAGUUGACAGAGUCUGCAUGCCGCCGGGCGCCAUGCCUGCAGGUCGACUCUAGAAAACAUG | -7.51 | -5.5 | -7.08 | -2.51 |  |  | -7.76 | 

Source: paper PMC8384837
